The other results are listed elsewhere or left out. Single values are uncertain, as repeats are few or missing.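 The apoptosis fraction was the count of cleaved-PARP antibody-stained nuclei relative to all DNA-stained nuclei, imaged in 1,536-well plates. Screening doses were set so most cells survived, and baseline and induced cleaved-PARP levels vary greatly across cell lines.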
What was measured:
Assay in all cases: cleaved PARP positive nuclei fraction relative to DMSO control; melanoma cells; higher = more apoptosis
Details in all cases: library dose: low library concentration; 72 h
MZ2-MEL = system: MZ2-MEL
MeWo = system: MeWo
RPMI7951 = system: RPMI7951
RVH-421 = system: RVH-421
SkMel28 = system: SkMel28
SkMel2 = system: SkMel2
SkMel30 = system: SkMel30
UACC62 = system: UACC62

Row | Compound | cleaved PARP positive nuclei fraction (MZ2-MEL) | cleaved PARP positive nuclei fraction (MeWo) | cleaved PARP positive nuclei fraction (RPMI7951) | cleaved PARP positive nuclei fraction (RVH-421) | cleaved PARP positive nuclei fraction (SkMel28) | cleaved PARP positive nuclei fraction (SkMel2) | cleaved PARP positive nuclei fraction (SkMel30) | cleaved PARP positive nuclei fraction (UACC62)
1 | CS(=O)(=O)c1ccc(C(=O)Nc2ccc(Cl)c(-c3ccccn3)c2)c(Cl)c1 [vismodegib] + CCN(CC)CCNC(=O)c1c(C)[nH]c(/C=C2\C(=O)Nc3ccc(F)cc32)c1C [sunitinib] (first compound 1 µM, partner dose 0.4 µM) | 121% | 74.4% | 328% | 136% | 74.9% | 94% | 53.8% | 78%
2 | NC1(c2ccc(-c3nc4ccn5c(=O)[nH]nc5c4cc3-c3ccccc3)cc2)CCC1 + CS(=O)(=O)CCNCc1ccc(-c2ccc3ncnc(Nc4ccc(OCc5cccc(F)c5)c(Cl)c4)c3c2)o1 [lapatinib] (first compound 0.4 µM, partner dose 0.8 µM) | 178% | 115% | 138% | 47.8% | 170% | 46.5% | 125% | 202%
3 | COc1ccc(C2=N[C@@H](c3ccc(Cl)cc3)[C@@H](c3ccc(Cl)cc3)N2C(=O)N2CCNC(=O)C2)c(OC(C)C)c1 [Nutlin-3] + C[C@@H](Oc1cc(-c2cnn(C3CCNCC3)c2)cnc1N)c1c(Cl)ccc(F)c1Cl [Crizotinib] (first compound 0.1 µM, partner dose 0.2 µM) | 57.8% | 80.2% | 21.4% | 117% | 21.5% | 118% | 70.3% | 196%
4 | NC1(c2ccc(-c3nc4ccn5c(=O)[nH]nc5c4cc3-c3ccccc3)cc2)CCC1 + CCCS(=O)(=O)Nc1ccc(F)c(C(=O)c2c[nH]c3ncc(Cl)cc23)c1F [PLX4720] (first compound 0.4 µM, partner dose 0.08 µM) | 69.8% | 150% | 112% | 326% | 316% | 69.2% | 167% | 416%
5 | C[C@]1(O)C[C@@H](c2nc(-c3ccc4ccc(-c5ccccc5)nc4c3)c3c(N)nccn32)C1 + CCN(CC)CCNC(=O)c1c(C)[nH]c(/C=C2\C(=O)Nc3ccc(F)cc32)c1C [sunitinib] (first compound 0.4 µM, partner dose 0.4 µM) | 199% | 44.4% | 85.8% | 84.7% | 180% | 98.2% | 79.7% | 136%
6 | Cn1sc(=O)n(Cc2ccccc2)c1=O + CC(=O)O[C@@]12CO[C@@H]1C[C@H](O)[C@@]1(C)C(=O)[C@H](O)C3=C(C)[C@@H](OC(=O)[C@H](O)[C@@H](NC(=O)OC(C)(C)C)c4ccccc4)C[C@@](O)([C@@H](OC(=O)c4ccccc4)[C@H]21)C3(C)C [Docetaxel] (first compound 0.4 µM, partner dose 0.0001 µM) | 728% | 449% | 63.3% | 171% | 198% | 498% | 697% | 407%
7 | CN(c1ncccc1CNc1nc(Nc2ccc3c(c2)CC(=O)N3)ncc1C(F)(F)F)S(C)(=O)=O + CNC(=O)c1cc(Oc2ccc(NC(=O)Nc3ccc(Cl)c(C(F)(F)F)c3)cc2)ccn1 [sorafenib] (first compound 0.08 µM, partner dose 0.4 µM) | 60.9% | 79.5% | 181% | 69.3% | 102% | 33.4% | 26.9% | 48.4%
8 | NC(=O)c1ccc(N(C(N)=O)c2c(F)cccc2F)nc1-c1ccc(F)cc1F + CNC(=O)c1cc(Oc2ccc(NC(=O)Nc3ccc(Cl)c(C(F)(F)F)c3)cc2)ccn1 [sorafenib] (first compound 0.4 µM, partner dose 0.4 µM) | 72.2% | 130% | 87.1% | 87.6% | 87.7% | 89.9% | 19.8% | 57.5%
9 | COc1ccc(C2=N[C@@H](c3ccc(Cl)cc3)[C@@H](c3ccc(Cl)cc3)N2C(=O)N2CCNC(=O)C2)c(OC(C)C)c1 [Nutlin-3] + CS(=O)(=O)c1ccc(C(=O)Nc2ccc(Cl)c(-c3ccccn3)c2)c(Cl)c1 [vismodegib] (first compound 0.1 µM, partner dose 1 µM) | 91.6% | 137% | 102% | 112% | 77.7% | 66.8% | 21% | 92.6%
10 | CC1(C)CCC(c2ccc(Cl)cc2)=C(CN2CCN(c3ccc(C(=O)NS(=O)(=O)c4ccc(N[C@H](CCN5CCOCC5)CSc5ccccc5)c(S(=O)(=O)C(F)(F)F)c4)cc3)CC2)C1 + COc1ccc(Cl)c(Nc2nc3ccccc3nc2NS(=O)(=O)c2cccc(NC(=O)C(C)(C)N)c2)c1 [XL147] (first compound 0.4 µM, partner dose 0.8 µM) | 150% | 523% | 114% | 131% | 40.5% | 77.5% | 212% | 53%
11 | CC1(C)CCC(c2ccc(Cl)cc2)=C(CN2CCN(c3ccc(C(=O)NS(=O)(=O)c4ccc(N[C@H](CCN5CCOCC5)CSc5ccccc5)c(S(=O)(=O)C(F)(F)F)c4)cc3)CC2)C1 + Clc1ccc(Nc2nnc(Cc3ccncc3)c3ccccc23)cc1 [vatalanib] (first compound 0.4 µM, partner dose 2 µM) | 188% | 731% | 399% | 285% | 212% | 89.8% | 390% | 93.1%
12 | Cn1sc(=O)n(Cc2ccccc2)c1=O + COc1ccc(C2=N[C@@H](c3ccc(Cl)cc3)[C@@H](c3ccc(Cl)cc3)N2C(=O)N2CCNC(=O)C2)c(OC(C)C)c1 [Nutlin-3] (first compound 0.4 µM, partner dose 0.1 µM) | 119% | 116% | 43% | 242% | 81% | 99.3% | 39.2% | 103%
13 | CCN(CC)CCNC(=O)c1c(C)[nH]c(/C=C2\C(=O)Nc3ccc(F)cc32)c1C [sunitinib] + CN(c1ncccc1CNc1nc(Nc2ccc3c(c2)CC(=O)N3)ncc1C(F)(F)F)S(C)(=O)=O [PF562271] (first compound 0.4 µM, partner dose 0.08 µM) | 106% | 58.9% | 38.9% | 271% | 44% | 63.3% | 56.3% | 230%
14 | CCCCCCCCc1ccc(CCC(N)(CO)CO)cc1 [fingolimod] + COCC[n+]1c2c(n(Cc3cnccn3)c1C)C(=O)c1ccccc1C2=O [YM155] (first compound 2 µM, partner dose 0.0004 µM) | 150% | 28.8% | 122% | 58.5% | 93% | 102% | 90% | 43.9%
15 | CN(c1ncccc1CNc1nc(Nc2ccc3c(c2)CC(=O)N3)ncc1C(F)(F)F)S(C)(=O)=O + CS(=O)(=O)CCNCc1ccc(-c2ccc3ncnc(Nc4ccc(OCc5cccc(F)c5)c(Cl)c4)c3c2)o1 [lapatinib] (first compound 0.08 µM, partner dose 0.8 µM) | 101% | 979% | 137% | 292% | 94.1% | 96.4% | 24% | 391%
16 | CS(=O)(=O)c1ccc(C(=O)Nc2ccc(Cl)c(-c3ccccn3)c2)c(Cl)c1 [vismodegib] + C=CCNC1=C2C[C@@H](C)C[C@H](OC)[C@H](O)[C@@H](C)/C=C(\C)[C@H](OC(N)=O)[C@@H](OC)/C=C\C=C(/C)C(=O)NC(=CC1=O)C2=O [Tanespimycin] (first compound 1 µM, partner dose 0.002 µM) | 116% | 133% | 68.2% | 59.6% | 57.5% | 68.8% | 19.2% | 60.6%
17 | NC(=O)c1ccc(N(C(N)=O)c2c(F)cccc2F)nc1-c1ccc(F)cc1F + CCCCCCCCc1ccc(CCC(N)(CO)CO)cc1 [fingolimod] (first compound 0.4 µM, partner dose 2 µM) | 81.7% | 41.1% | 301% | 359% | 89.5% | 207% | 57.9% | 248%
18 | CC1(C)CCC(c2ccc(Cl)cc2)=C(CN2CCN(c3ccc(C(=O)NS(=O)(=O)c4ccc(N[C@H](CCN5CCOCC5)CSc5ccccc5)c(S(=O)(=O)C(F)(F)F)c4)cc3)CC2)C1 + Cc1nc(Nc2ncc(C(=O)Nc3c(C)cccc3Cl)s2)cc(N2CCN(CCO)CC2)n1 [dasatanib] (first compound 0.4 µM, partner dose 0.004 µM) | 205% | 307% | 224% | 284% | 96.6% | 134% | 188% | 156%
19 | C[C@]1(O)C[C@@H](c2nc(-c3ccc4ccc(-c5ccccc5)nc4c3)c3c(N)nccn32)C1 + O=C(O)[C@@H]1[O][Sb](=[O])([O][Sb]2(=[O])[O][C@H]([C@H](O)CO)[C@H](O)[C@H](C(=O)O)[O]2)[O][C@H]([C@H](O)CO)[C@@H]1O [stibogluconate] (first compound 0.4 µM, partner dose 2 µM) | 83.4% | 104% | 102% | 94% | 40.2% | 73.1% | 35.2% | 45.3%
20 | C[C@@H](N)c1ccc(C(=O)Nc2ccnc3[nH]ccc23)cc1 + CC(C)C[C@H](NC(=O)[C@H](Cc1ccccc1)NC(=O)c1cnccn1)B(O)O [Bortezomib] (first compound 0.4 µM, partner dose 0.001 µM) | 75.1% | 510% | 49.1% | 181% | 125% | 167% | 88.5% | 279%
21 | NC(=O)c1ccc(N(C(N)=O)c2c(F)cccc2F)nc1-c1ccc(F)cc1F + C[C@]1(O)C[C@@H](c2nc(-c3ccc4ccc(-c5ccccc5)nc4c3)c3c(N)nccn32)C1 [OSI906] (first compound 0.4 µM, partner dose 0.4 µM) | 274% | 86.3% | 80.3% | 129% | 103% | 118% | 33.4% | 111%
22 | C[C@@H](N)c1ccc(C(=O)Nc2ccnc3[nH]ccc23)cc1 + Cc1nc(Nc2ncc(C(=O)Nc3c(C)cccc3Cl)s2)cc(N2CCN(CCO)CC2)n1 [dasatanib] (first compound 0.4 µM, partner dose 0.004 µM) | 279% | 223% | 60.6% | 77.9% | 131% | 159% | 26.1% | 110%

Pulled one by one from the entries so far, 2 records:
Row | Compound | cleaved PARP positive nuclei fraction (MZ2-MEL) | cleaved PARP positive nuclei fraction (MeWo) | cleaved PARP positive nuclei fraction (RPMI7951) | cleaved PARP positive nuclei fraction (RVH-421) | cleaved PARP positive nuclei fraction (SkMel28) | cleaved PARP positive nuclei fraction (SkMel2) | cleaved PARP positive nuclei fraction (SkMel30) | cleaved PARP positive nuclei fraction (UACC62)
21 | NC(=O)c1ccc(N(C(N)=O)c2c(F)cccc2F)nc1-c1ccc(F)cc1F + C[C@]1(O)C[C@@H](c2nc(-c3ccc4ccc(-c5ccccc5)nc4c3)c3c(N)nccn32)C1 [OSI906] (first compound 0.4 µM, partner dose 0.4 µM) | 274% | 86.3% | 80.3% | 129% | 103% | 118% | 33.4% | 111%
14 | CCCCCCCCc1ccc(CCC(N)(CO)CO)cc1 [fingolimod] + COCC[n+]1c2c(n(Cc3cnccn3)c1C)C(=O)c1ccccc1C2=O [YM155] (first compound 2 µM, partner dose 0.0004 µM) | 150% | 28.8% | 122% | 58.5% | 93% | 102% | 90% | 43.9%

Reference: the supplement of paper PMC4604168 (melanoma cell lines)
